{"source": "PubChem BioAssay AID743121 (NCATS, 2013)", "screen": "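Knock-downs that sensitise breast cancer cells to camptothecin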 (primary screen)", "system": "MDA-MB-231 cells, a human breast cancer line", "knock-down reagent": "single siRNA against human genes, 20 nM siRNA (0.8 pmol per well)", "time to read-out": "120 h (drug added 48 h after transfection, read 72 h later)", "treatment": "camptothecin 20 nM (about EC30) for 72 h; vehicle 0.1% DMSO in parallel plates", "read-out": "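Cell viability by ATP luminescence (CellTiter-Glo) as % of non-targeting siRNA wells, and the log2 ratio of viability without drug over viability with camptothecin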", "reading the numbers": "log2 vehicle/camptothecin viability: higher = stronger sensitisation to camptothecin; viability with camptothecin: higher = more viable cells", "rule for the call": "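Active genes have an RSA gene-level p-value below 0.001, computed from the ratios of their separate siRNAs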", "note": "Here is one part, drawn at random, of about 26,000 reagents tested. Over the whole deposit, 167 (0.63%) were called active. 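Calls are per gene from RSA p-values that are not deposited; an individual active-marked siRNA can sensitise only weakly.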 Reagents against one gene are numbered here. Further read-outs or replicates are left out here. Reagent sequences are not shown."}
{"Target gene":"EPHA7","reagent":1,"log2 vehicle/camptothecin viability":-0.312,"viability with camptothecin (% of control)":76,"Outcome":"inactive"}
{"Target gene":"EPHA7","reagent":2,"log2 vehicle/camptothecin viability":-0.0613,"viability with camptothecin (% of control)":70.2,"Outcome":"inactive"}
{"Target gene":"EPHA7","reagent":3,"log2 vehicle/camptothecin viability":-0.276,"viability with camptothecin (% of control)":20.3,"Outcome":"inactive"}
{"Target gene":"NCK1","reagent":1,"log2 vehicle/camptothecin viability":0.32,"viability with camptothecin (% of control)":32.9,"Outcome":"inactive"}
{"Target gene":"NCK1","reagent":2,"log2 vehicle/camptothecin viability":0.319,"viability with camptothecin (% of control)":64.5,"Outcome":"inactive"}
{"Target gene":"NCK1","reagent":3,"log2 vehicle/camptothecin viability":-0.0122,"viability with camptothecin (% of control)":86,"Outcome":"inactive"}
{"Target gene":"NCK1","reagent":4,"log2 vehicle/camptothecin viability":-0.265,"viability with camptothecin (% of control)":98.8,"Outcome":"inactive"}
{"Target gene":"ACKR3","reagent":1,"log2 vehicle/camptothecin viability":-0.487,"viability with camptothecin (% of control)":44.4,"Outcome":"inactive"}
{"Target gene":"ACKR3","reagent":2,"log2 vehicle/camptothecin viability":-0.265,"viability with camptothecin (% of control)":71.6,"Outcome":"inactive"}
{"Target gene":"ACKR3","reagent":3,"log2 vehicle/camptothecin viability":0.278,"viability with camptothecin (% of control)":57,"Outcome":"inactive"}
{"Target gene":"ACKR3","reagent":4,"log2 vehicle/camptothecin viability":-0.341,"viability with camptothecin (% of control)":65.4,"Outcome":"inactive"}
{"Target gene":"FBXO6","reagent":1,"log2 vehicle/camptothecin viability":-0.232,"viability with camptothecin (% of control)":71.5,"Outcome":"inactive"}
{"Target gene":"FBXO6","reagent":2,"log2 vehicle/camptothecin viability":0.0418,"viability with camptothecin (% of control)":65.8,"Outcome":"inactive"}
{"Target gene":"FBXO6","reagent":3,"log2 vehicle/camptothecin viability":-0.569,"viability with camptothecin (% of control)":13.3,"Outcome":"inactive"}
{"Target gene":"CCL21","reagent":1,"log2 vehicle/camptothecin viability":0.405,"viability with camptothecin (% of control)":24.5,"Outcome":"inactive"}
{"Target gene":"CCL21","reagent":2,"log2 vehicle/camptothecin viability":-0.138,"viability with camptothecin (% of control)":96.6,"Outcome":"inactive"}
{"Target gene":"CCL21","reagent":3,"log2 vehicle/camptothecin viability":-0.248,"viability with camptothecin (% of control)":37.8,"Outcome":"inactive"}
{"Target gene":"CCL21","reagent":4,"log2 vehicle/camptothecin viability":-0.418,"viability with camptothecin (% of control)":74.2,"Outcome":"inactive"}
{"Target gene":"OR7A5","reagent":1,"log2 vehicle/camptothecin viability":-0.174,"viability with camptothecin (% of control)":85.2,"Outcome":"inactive"}
{"Target gene":"OR7A5","reagent":2,"log2 vehicle/camptothecin viability":-0.0761,"viability with camptothecin (% of control)":108,"Outcome":"inactive"}
{"Target gene":"OR7A5","reagent":3,"log2 vehicle/camptothecin viability":-0.572,"viability with camptothecin (% of control)":101,"Outcome":"inactive"}
{"Target gene":"OR7A5","reagent":4,"log2 vehicle/camptothecin viability":-0.0972,"viability with camptothecin (% of control)":82.4,"Outcome":"inactive"}

An excerpt of the results above:
{"Target gene":"FBXO6","reagent":3,"log2 vehicle/camptothecin viability":-0.569,"viability with camptothecin (% of control)":13.3,"Outcome":"inactive"}
{"Target gene":"CCL21","reagent":1,"log2 vehicle/camptothecin viability":0.405,"viability with camptothecin (% of control)":24.5,"Outcome":"inactive"}
{"Target gene":"CCL21","reagent":2,"log2 vehicle/camptothecin viability":-0.138,"viability with camptothecin (% of control)":96.6,"Outcome":"inactive"}

Continued:
{"Target gene":"DGKD","reagent":1,"log2 vehicle/camptothecin viability":-0.186,"viability with camptothecin (% of control)":71.4,"Outcome":"inactive"}
{"Target gene":"DGKD","reagent":2,"log2 vehicle/camptothecin viability":-0.044,"viability with camptothecin (% of control)":76.7,"Outcome":"inactive"}
{"Target gene":"DGKD","reagent":3,"log2 vehicle/camptothecin viability":-0.00777,"viability with camptothecin (% of control)":88.8,"Outcome":"inactive"}
{"Target gene":"DGKD","reagent":4,"log2 vehicle/camptothecin viability":0.161,"viability with camptothecin (% of control)":86.2,"Outcome":"inactive"}
{"Target gene":"TWNK","reagent":1,"log2 vehicle/camptothecin viability":-0.00752,"viability with camptothecin (% of control)":99,"Outcome":"inactive"}
{"Target gene":"TWNK","reagent":2,"log2 vehicle/camptothecin viability":-0.425,"viability with camptothecin (% of control)":36.8,"Outcome":"inactive"}
{"Target gene":"TWNK","reagent":3,"log2 vehicle/camptothecin viability":-0.305,"viability with camptothecin (% of control)":77.1,"Outcome":"inactive"}
{"Target gene":"TWNK","reagent":4,"log2 vehicle/camptothecin viability":-0.392,"viability with camptothecin (% of control)":65.9,"Outcome":"inactive"}
{"Target gene":"PRKCB","reagent":1,"log2 vehicle/camptothecin viability":-0.428,"viability with camptothecin (% of control)":36.2,"Outcome":"inactive"}
{"Target gene":"PRKCB","reagent":2,"log2 vehicle/camptothecin viability":0.224,"viability with camptothecin (% of control)":78.7,"Outcome":"inactive"}
{"Target gene":"PRKCB","reagent":3,"log2 vehicle/camptothecin viability":-0.284,"viability with camptothecin (% of control)":89.6,"Outcome":"inactive"}
{"Target gene":"PRKCB","reagent":4,"log2 vehicle/camptothecin viability":-0.375,"viability with camptothecin (% of control)":117,"Outcome":"inactive"}
{"Target gene":"CCL24","reagent":1,"log2 vehicle/camptothecin viability":0.0244,"viability with camptothecin (% of control)":18.4,"Outcome":"inactive"}
{"Target gene":"CCL24","reagent":2,"log2 vehicle/camptothecin viability":0.677,"viability with camptothecin (% of control)":26.9,"Outcome":"inactive"}
{"Target gene":"CCL24","reagent":3,"log2 vehicle/camptothecin viability":0.101,"viability with camptothecin (% of control)":68.9,"Outcome":"inactive"}
{"Target gene":"CCL24","reagent":4,"log2 vehicle/camptothecin viability":-0.25,"viability with camptothecin (% of control)":76.9,"Outcome":"inactive"}
